Measured values from US5773414A, “Endothelin antagonists” (Warner-Lambert Company, priority 1997, dated 1998).
For some of these results: Not every detail of the peptide structures is certain; ends, links or a residue may be inferred. For some of these results: At least one compound was matched to its structure with a doubt left. Numbered stars: 1 amine (or outer) side, 2 acyl side, 3 side chain; on linkers, the order of the positions; unused ones are H or OH. Square brackets hold non-standard residues; d marks the D form. Peptide text beside a SMILES is read from it. * marks the point of attachment. X4 = O=C([C@@H](CC12CC3CC(CC(C3)C1)C2)N[*:1])[*:2]; dDip = N[C@@H](C(=O)O)C(c1ccccc1)c1ccccc1; PhAc = O=C(Cc1ccccc1)*

Assays:
[1] = tested on: hemodynamic responses to ET-1; assay: In vivo endothelin antagonism in anesthetized, ganglionic blocked rats; conditions: pretreatment 1.0 μM/kg/5 minutes, IV infusion
[2] = target: T1, ETB (Rattus norvegicus, UniProt P21451); assay: Endothelin Receptor Binding Assay-B (ETB), [125I]-ET-1 binding in rat cerebellar membranes; conditions: Table IIa, read-out: Binding Assay IC50 at Receptor Subtypes ETB
T1 construct: thaw one aliquot of frozen rat cerebellar membranes; from tissue; host or cells: rat cerebellar membranes
T1 sequence (P21451 27-442): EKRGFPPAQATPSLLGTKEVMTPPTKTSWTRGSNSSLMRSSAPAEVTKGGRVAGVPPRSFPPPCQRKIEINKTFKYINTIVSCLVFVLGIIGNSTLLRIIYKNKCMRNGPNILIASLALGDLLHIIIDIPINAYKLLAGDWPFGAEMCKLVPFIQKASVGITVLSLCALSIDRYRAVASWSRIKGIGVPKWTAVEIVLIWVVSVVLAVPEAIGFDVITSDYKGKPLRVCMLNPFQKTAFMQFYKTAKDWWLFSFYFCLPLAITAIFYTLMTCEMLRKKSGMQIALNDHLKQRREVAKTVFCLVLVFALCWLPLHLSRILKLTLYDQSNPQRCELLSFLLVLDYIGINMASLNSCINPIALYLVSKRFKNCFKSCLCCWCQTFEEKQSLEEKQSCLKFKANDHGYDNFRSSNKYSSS
Procedure: The tissue is made up of 20 mM tris(hydroxymethyl)aminomethane hydrochloride (Trizma) buffer, 2 mM ethylenediaminetetraacetate, 100 μM phenylmethylsulfonyl fluoride.
First, thaw one aliquot of frozen rat cerebellar membranes (2 mg protein in 0.5 mL). Next, add 0.5 mL membrane aliquot to 4.5 mL cold tissue buffer, polytron at 7,500 revolutions per minute for 10 seconds. Finally, dilute tissue suspension 1/100 (0.1 mL suspension+9.9 mL tissue buffer), polytron again, and place ice.
Mix in 150 μL of tissue to each tube, vortex briefly, then tap to force all liquids to bottom (total assay volume=250 μL). Then place the tubes in a 37° C. water bath for 2 hours.
Add 2.5 mL cold water buffer (50 mM Trizma buffer) to each tube, filter, and then wash tube with additional 2.5 mL wash buffer and add to filter. Finally, wash filters with an additional 2.5 mL of cold wash buffer.
Count filters for radioactivity in gamma counter.

[3] = target: T2, ETA (Oryctolagus cuniculus, UniProt A5A8K3); assay: Endothelin Receptor Binding Assay-A (ETA), intact cell binding of [125I]-ET-1; conditions: Table IIa; rabbit renal artery vascular smooth muscle cells; read-out: Binding Assay IC50 at Receptor Subtypes ETA
T2 construct: The cells used were rabbit renal artery vascular smooth muscle cells; endogenous in cells; host or cells: rabbit renal artery vascular smooth muscle cells
T2 sequence (A5A8K3 21-427): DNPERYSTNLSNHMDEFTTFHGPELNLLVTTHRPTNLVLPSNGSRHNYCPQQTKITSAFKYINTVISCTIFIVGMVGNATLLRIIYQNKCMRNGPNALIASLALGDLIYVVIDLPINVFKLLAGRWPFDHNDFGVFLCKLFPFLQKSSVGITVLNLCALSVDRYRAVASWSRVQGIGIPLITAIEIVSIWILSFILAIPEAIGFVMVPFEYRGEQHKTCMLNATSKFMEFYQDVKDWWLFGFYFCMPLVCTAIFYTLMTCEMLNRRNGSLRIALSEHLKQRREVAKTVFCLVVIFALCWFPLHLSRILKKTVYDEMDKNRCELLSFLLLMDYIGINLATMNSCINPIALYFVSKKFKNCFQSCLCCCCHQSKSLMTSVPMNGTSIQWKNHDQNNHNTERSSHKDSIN
Procedure: The cells used were rabbit renal artery vascular smooth muscle cells grown in a 48-well dish (1 cm^2) (confluent cells).
The growth media was Dulbeccos Modified Eagles/Ham's F12 which contained 10 fetal bovine serum and antibiotics (penicillin/streptomycin/fungizone).
Second, remove the assay buffers, place the dish on ice, and add 150 μL of cold assay buffer described above to each well. […] Next, place dish in a 37° C. water bath for about 2 hours and gently agitate the dish every 15 minutes. Discard the radioactive incubation mixture in the sink and wash wells 3 times with 1 mL of cold phosphate buffered saline. Last, add […] of 0.25M sodium hydroxide, agitate for 1 hour on rotator, and then transfer the sodium hydroxide extract to gamma counting tubes and count the radioactivity.

Structure (SMILES): CC[C@H](C)[C@H](NC(=O)[C@H](CC(=O)O)NC(=O)[C@H](CC(C)C)NC(=O)[C@H](NC(C)=O)C(c1ccccc1)c1ccccc1)C(=O)N[C@H](C(=O)N[C@@H](Cc1c[nH]c2ccccc12)C(=O)O)[C@@H](C)CC [Example 13, Ac--D--Dip--Leu--Asp--Ile--Ile--Trp] (Ac-[dDip]LDIIW-OH)
- attenuation of the vasodilatation to ET-1 in the hind limb [1]: ~ 50%
- pressor responses to ET-1 [1]: no effect
- systemic depressor responses to ET-1 [1]: significantly attenuated
- vasoconstriction to ET-1 in the renal bed [1]: unchanged

Structure (SMILES): CC[C@H](C)[C@H](NC(=O)[C@H](CC(=O)O)NC(=O)[C@H](CC(C)C)NC(=O)[C@H](NC(=O)Cc1ccccc1)C(c1ccccc1)c1ccccc1)C(=O)N[C@H](C(=O)N[C@@H](Cc1c[nH]c2ccccc12)C(=O)O)[C@@H](C)CC [Example 32, Bz--D--Dip--Leu--Asp--Ile--Ile--Trp] (PhAc-[dDip]LDIIW-OH)
- IC50 [2]: 0.03 µM

Structure (SMILES): CC[C@H](C)[C@H](NC(=O)[C@H](CC(=O)O)NC(=O)[C@H](CC(C)C)NC(=O)[C@@H](CC12CC3CC(CC(C3)C1)C2)NC(C)=O)C(=O)N[C@H](C(=O)N[C@@H](Cc1c[nH]c2ccccc12)C(=O)O)[C@@H](C)CC [Example 56, Ac--D--Adm--Leu--Asp--Ile--Ile--Trp] (Ac-[X4]LDIIW-OH)
- IC50 [2]: 1.92 µM
- IC50 [3]: 3.22 µM
